These are yes or no findings as the source states them, for the method shown. Binding seen in cells or lysates may run through a third protein. A result given as binding can be weak or reduced; the word gives no strength.

Amino acid sequences for entries named in this document (tags omitted). A change or cut given only in a name is not applied to a line headed by its entry.
UniProt Q5T0T0: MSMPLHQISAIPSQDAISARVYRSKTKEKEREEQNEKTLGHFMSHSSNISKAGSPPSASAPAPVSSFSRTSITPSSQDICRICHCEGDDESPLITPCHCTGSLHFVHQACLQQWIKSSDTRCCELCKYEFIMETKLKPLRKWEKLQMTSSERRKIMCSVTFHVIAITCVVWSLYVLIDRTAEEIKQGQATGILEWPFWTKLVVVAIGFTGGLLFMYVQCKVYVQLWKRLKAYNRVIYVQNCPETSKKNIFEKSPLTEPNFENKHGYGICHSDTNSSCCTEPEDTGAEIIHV

In the experiment the target is T1, sterol regulatory element binding protein 1 (SREBP1) (human (endogenous in Huh7 and PLC)) (UniProt P36956).
T1 sequence: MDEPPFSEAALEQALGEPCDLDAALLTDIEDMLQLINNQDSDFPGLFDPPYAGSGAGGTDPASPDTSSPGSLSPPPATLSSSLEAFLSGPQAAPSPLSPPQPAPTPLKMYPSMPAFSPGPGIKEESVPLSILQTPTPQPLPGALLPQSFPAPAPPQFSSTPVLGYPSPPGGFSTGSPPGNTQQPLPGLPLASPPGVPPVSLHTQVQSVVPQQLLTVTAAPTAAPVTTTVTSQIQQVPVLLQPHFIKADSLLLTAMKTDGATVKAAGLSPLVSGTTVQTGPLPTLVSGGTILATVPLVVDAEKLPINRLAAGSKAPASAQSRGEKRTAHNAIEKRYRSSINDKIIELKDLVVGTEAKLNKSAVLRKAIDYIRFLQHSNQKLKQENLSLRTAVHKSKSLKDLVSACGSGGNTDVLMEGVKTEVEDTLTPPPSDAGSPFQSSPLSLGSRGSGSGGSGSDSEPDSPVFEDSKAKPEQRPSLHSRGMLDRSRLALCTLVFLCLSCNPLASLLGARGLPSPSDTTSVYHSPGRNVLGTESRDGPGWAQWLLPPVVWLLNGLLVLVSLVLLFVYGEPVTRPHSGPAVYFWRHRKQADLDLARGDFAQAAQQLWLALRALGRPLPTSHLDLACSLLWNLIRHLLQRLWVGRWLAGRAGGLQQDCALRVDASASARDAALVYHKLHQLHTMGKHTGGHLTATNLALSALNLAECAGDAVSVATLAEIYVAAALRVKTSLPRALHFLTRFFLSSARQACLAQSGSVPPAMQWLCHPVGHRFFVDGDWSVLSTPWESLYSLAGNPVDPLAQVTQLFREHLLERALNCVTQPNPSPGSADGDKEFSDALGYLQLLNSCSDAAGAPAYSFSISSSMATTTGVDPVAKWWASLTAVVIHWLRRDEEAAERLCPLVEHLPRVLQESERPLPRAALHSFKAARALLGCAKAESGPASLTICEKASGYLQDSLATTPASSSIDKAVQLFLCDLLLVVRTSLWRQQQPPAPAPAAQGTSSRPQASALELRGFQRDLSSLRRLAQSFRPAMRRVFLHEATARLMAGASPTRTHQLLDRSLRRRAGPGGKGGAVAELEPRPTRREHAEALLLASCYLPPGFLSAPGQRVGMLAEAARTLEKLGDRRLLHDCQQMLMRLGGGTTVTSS
Kind of experiment: co-IP; co-IP of domain-deletion mutants of MARCH8 or SREBP1 in Huh7 and PLC cells, Western blot.

For the substance “truncated mutant of MARCH8 lacking the TR2 domain (from UniProt Q5T0T0) (enzyme)”, the binding result is recorded as “binds”.

The record behind these values is paper PMC12084374.
